Measurements reported in patent publication US20260234234A1.
No constants are given. Whether binding was seen depends on the method and setting. Some entries that bind do so weakly or less than the wild type. Where a sequence is shown, tags or fusion partners need not be part of it.

Target: T1, Avitag_c-MYC_His6-tagged hIL-33 (Ser112-Thr270), QB10975 (human)
T1 sequence: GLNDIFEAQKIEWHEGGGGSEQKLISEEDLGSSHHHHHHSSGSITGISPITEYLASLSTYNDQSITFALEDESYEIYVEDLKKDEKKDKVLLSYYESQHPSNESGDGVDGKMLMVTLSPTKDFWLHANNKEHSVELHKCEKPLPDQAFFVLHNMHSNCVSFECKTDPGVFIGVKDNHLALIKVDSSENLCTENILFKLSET
Test: SPR

B1: anti-hIL-33 antibody QB11119 (antibody, human IgG1, kappa, L234A L235A, V domains shown)
VH: EVQLLESGGGLVQPGGSLRLSCAASGFTFYSSAMSWVRQTQGKGLEWVSTISSGGSNTYYPDSVKGRFTISRDNSKNTLYLQMNSLGAEDTAVYYCASAYYGRRYDAMDYWGQGTLVTVSS
VL: DVVMTQSPPSLPVTLGQSASISCKSSKSLLHSNANTYLYWFQQRPGQSPQLLIYRMSNLASGVPDRFSGSGSGTDFTLKISRVEAEDVGVYYCMQHLENPYTFGQGTKVEIKR
For B1, the binding was “binds”.
